The other results are listed elsewhere or left out.
Compound: Cc1cc(ccc1-c1ccccc1)C(=O)N1CCCN(CC1)C(=O)CCl [compound 10]
Test: probe-labelled cysteine peptide fold change vs DMSO (competition) (log2 fold change); higher = less target engagement (more negative = stronger competition)
Conditions: THP-1, incubation time: 4 h
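Note: competitive profiling in live THP-1 cells: cysteine peptides tagged with an iodoacetamide desthiobiotin (IA-DTB) probe, intensity after compound treatment relative to DMSO-treated cells.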

Protein sequences, listed by entry. Tags and fused reporters are not part of them. Lines headed by an entry give the natural chain unless they say otherwise; changes in a name come on top.
UniProt Q9BTW9: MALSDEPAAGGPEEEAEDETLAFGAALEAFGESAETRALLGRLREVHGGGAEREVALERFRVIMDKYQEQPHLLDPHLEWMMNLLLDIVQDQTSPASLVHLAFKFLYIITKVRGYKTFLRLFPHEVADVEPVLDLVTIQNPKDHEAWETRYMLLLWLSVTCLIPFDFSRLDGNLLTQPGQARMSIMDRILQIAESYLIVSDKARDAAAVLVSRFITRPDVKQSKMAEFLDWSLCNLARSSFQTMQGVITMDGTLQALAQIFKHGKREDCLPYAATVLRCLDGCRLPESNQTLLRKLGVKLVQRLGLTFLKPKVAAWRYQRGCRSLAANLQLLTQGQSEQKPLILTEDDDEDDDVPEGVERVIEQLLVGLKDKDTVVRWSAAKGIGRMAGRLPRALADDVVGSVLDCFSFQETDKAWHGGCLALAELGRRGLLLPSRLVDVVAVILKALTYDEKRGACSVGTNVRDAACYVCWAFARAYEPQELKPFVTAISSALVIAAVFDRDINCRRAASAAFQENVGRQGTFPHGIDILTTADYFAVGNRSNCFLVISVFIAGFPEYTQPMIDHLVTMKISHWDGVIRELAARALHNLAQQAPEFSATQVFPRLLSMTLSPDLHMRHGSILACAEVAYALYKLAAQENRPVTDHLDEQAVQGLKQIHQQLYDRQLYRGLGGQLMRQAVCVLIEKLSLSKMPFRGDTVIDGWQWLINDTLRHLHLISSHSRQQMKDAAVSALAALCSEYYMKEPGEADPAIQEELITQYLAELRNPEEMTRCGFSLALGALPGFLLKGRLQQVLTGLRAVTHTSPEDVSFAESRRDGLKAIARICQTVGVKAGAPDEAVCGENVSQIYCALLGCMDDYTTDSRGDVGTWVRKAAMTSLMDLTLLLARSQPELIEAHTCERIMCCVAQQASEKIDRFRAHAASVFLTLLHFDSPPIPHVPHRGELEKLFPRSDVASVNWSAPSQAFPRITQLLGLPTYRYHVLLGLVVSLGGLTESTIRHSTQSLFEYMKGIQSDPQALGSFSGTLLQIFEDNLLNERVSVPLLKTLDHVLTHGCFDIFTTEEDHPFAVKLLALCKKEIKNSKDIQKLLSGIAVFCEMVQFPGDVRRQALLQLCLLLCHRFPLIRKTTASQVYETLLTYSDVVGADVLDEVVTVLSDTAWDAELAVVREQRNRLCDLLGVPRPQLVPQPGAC
UniProt Q15813: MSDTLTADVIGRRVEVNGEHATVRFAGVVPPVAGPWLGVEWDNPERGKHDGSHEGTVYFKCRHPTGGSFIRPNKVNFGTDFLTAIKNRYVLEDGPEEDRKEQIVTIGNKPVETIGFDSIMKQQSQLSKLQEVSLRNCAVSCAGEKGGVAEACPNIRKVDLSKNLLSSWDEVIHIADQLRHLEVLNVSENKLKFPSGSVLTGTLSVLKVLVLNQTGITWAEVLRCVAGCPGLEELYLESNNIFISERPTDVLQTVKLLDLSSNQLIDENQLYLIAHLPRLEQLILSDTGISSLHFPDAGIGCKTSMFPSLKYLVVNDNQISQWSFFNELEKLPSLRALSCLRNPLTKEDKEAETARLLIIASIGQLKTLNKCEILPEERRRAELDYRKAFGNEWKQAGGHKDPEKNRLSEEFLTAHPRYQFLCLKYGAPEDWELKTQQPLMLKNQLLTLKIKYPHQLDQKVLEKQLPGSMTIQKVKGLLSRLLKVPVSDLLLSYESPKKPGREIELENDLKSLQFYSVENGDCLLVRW
UniProt Q9Y6J9: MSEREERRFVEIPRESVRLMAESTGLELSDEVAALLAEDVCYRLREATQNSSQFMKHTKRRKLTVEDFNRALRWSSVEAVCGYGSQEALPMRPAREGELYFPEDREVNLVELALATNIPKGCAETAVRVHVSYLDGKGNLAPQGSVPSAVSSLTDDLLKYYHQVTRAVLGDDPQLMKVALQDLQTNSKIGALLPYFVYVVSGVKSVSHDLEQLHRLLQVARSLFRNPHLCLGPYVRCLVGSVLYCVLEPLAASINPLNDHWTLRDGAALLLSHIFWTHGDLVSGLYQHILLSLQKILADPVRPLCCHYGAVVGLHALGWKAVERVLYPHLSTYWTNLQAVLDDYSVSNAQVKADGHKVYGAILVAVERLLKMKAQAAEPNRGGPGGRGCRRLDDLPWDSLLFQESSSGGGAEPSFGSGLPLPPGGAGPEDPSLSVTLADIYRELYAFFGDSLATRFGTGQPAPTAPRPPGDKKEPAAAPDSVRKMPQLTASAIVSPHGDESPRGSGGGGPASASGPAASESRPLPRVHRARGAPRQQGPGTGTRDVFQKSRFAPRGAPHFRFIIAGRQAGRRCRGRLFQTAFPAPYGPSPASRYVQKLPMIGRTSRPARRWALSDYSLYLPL
UniProt Q9C0D5: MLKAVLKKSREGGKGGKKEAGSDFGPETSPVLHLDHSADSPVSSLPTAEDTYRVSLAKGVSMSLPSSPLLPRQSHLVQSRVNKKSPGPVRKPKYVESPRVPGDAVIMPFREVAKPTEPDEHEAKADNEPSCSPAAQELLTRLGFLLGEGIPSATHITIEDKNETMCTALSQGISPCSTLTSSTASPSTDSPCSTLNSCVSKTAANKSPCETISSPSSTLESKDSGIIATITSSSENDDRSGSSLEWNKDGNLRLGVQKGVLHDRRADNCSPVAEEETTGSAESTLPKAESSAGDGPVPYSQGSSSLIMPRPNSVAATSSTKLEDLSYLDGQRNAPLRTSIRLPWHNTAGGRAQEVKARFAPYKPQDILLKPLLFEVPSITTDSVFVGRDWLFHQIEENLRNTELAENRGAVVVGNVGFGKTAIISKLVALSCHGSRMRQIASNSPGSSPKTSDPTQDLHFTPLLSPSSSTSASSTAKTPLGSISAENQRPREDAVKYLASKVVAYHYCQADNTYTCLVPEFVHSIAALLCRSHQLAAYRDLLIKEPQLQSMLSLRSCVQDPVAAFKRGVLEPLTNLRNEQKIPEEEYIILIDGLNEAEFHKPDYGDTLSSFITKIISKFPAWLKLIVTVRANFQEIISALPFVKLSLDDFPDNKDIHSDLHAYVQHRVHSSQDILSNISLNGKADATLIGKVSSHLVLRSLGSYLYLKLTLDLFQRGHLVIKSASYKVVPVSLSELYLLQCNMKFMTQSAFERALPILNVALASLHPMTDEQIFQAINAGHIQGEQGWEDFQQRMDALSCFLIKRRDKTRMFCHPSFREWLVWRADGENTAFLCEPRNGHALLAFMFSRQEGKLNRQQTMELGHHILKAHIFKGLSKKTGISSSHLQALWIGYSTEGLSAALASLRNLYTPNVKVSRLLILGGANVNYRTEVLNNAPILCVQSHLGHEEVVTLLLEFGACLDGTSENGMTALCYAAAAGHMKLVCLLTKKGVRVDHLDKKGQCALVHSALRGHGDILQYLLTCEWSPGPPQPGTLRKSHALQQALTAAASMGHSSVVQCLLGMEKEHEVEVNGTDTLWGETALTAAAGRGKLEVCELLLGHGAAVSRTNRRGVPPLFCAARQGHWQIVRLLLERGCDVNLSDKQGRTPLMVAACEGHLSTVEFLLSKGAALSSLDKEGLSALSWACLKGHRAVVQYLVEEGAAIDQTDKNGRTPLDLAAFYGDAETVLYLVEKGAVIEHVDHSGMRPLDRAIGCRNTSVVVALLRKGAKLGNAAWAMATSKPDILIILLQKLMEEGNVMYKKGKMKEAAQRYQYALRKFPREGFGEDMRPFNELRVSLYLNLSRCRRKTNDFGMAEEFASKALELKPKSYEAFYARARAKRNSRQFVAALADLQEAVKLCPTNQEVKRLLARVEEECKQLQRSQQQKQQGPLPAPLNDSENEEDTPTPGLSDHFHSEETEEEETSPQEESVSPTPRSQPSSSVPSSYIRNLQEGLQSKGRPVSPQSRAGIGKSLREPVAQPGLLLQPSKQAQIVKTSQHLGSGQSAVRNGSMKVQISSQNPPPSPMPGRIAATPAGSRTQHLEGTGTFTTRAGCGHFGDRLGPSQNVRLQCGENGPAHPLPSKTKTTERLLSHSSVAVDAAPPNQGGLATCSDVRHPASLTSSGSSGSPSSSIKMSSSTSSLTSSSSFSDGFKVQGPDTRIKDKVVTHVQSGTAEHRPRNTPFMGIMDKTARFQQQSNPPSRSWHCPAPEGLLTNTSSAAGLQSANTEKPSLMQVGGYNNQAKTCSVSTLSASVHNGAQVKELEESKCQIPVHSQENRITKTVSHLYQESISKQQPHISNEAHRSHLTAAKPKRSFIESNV
UniProt Q03519, whole entry, looked up: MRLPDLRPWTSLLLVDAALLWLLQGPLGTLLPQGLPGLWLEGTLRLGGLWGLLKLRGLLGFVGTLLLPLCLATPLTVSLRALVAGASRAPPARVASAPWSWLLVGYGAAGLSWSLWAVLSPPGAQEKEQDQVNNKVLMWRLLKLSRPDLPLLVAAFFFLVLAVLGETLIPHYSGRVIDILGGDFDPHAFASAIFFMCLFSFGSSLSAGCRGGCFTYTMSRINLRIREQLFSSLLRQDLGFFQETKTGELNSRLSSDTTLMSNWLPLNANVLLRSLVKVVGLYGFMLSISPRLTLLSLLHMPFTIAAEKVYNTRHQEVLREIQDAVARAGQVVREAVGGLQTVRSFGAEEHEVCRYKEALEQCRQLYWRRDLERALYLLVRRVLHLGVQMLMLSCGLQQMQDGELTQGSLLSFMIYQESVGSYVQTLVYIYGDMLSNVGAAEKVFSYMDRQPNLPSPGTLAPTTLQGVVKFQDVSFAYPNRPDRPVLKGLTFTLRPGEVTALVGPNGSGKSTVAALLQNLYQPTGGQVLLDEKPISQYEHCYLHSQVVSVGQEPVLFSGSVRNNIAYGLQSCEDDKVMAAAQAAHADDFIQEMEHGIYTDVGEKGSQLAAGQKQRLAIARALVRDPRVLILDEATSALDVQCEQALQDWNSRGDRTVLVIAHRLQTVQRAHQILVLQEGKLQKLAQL
UniProt Q6P1N9: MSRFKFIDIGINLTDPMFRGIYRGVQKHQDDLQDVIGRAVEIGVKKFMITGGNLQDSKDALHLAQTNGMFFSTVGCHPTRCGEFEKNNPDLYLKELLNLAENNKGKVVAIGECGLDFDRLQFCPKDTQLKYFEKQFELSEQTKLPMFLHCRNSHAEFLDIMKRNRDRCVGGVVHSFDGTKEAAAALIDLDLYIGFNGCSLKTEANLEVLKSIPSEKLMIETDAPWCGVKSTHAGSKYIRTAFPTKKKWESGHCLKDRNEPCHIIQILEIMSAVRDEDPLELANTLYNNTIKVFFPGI
UniProt Q969E4: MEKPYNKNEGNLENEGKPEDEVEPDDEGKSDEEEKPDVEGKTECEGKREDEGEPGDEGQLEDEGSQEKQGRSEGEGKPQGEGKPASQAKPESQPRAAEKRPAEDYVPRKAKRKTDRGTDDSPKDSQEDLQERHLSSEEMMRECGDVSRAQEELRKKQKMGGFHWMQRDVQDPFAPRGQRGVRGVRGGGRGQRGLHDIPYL
UniProt Q86TI0: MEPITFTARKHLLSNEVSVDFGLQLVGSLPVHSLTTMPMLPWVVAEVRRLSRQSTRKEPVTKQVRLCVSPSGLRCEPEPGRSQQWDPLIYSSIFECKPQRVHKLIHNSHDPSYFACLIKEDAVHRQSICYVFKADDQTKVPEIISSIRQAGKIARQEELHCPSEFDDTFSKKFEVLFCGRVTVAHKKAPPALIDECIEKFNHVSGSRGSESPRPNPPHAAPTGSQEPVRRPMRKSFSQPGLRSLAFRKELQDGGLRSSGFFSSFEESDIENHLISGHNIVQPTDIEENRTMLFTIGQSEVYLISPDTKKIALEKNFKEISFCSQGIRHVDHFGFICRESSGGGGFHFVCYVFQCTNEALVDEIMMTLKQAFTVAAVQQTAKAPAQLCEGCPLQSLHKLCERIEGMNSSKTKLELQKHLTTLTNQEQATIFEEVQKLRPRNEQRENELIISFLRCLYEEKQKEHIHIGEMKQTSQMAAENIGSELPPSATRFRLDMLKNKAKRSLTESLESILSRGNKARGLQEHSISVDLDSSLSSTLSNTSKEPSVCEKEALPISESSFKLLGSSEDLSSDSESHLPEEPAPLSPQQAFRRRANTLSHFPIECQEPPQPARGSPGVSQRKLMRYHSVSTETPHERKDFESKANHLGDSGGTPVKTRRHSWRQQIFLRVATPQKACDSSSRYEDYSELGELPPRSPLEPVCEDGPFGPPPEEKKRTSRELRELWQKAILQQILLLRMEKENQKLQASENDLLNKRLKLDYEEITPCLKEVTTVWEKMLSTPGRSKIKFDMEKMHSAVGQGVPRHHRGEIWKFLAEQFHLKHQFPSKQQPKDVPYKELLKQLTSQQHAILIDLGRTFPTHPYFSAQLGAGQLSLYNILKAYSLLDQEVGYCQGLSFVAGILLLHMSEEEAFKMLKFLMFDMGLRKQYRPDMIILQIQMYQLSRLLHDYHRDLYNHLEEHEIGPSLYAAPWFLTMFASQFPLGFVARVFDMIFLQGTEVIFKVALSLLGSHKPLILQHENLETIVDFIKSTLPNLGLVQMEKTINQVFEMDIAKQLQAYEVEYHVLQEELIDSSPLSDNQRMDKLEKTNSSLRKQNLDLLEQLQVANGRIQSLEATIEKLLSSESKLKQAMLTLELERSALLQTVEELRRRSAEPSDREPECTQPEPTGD

Target	probe-labelled cysteine peptide fold change (10 µM)	probe-labelled cysteine peptide fold change (50 µM)
SYNJ2_O15056_19_LGAEGDCSVLLEAR (UniProt O15056)	0.409	0.208
TBC1D24_Q9ULP9_386_FYFQCEGHEPTLLLIK (UniProt Q9ULP9)	0.179	0.159
TBCD_Q9BTW9_1055_TLDHVLTHGCFDIFTTEEDHPFAVK (UniProt Q9BTW9)	-0.188	-0.0289
TBCE_Q15813_141_NCAVSCAGEK (UniProt Q15813)	-0.11	-1.39
TAF6L_Q9Y6J9_81_WSSVEAVCGYGSQEALPMRPAR (UniProt Q9Y6J9)	-0.0172	-0.0202
TANC1_Q9C0D5_741_VVPVSLSELYLLQCNMK (UniProt Q9C0D5)	0.208	0.25
SYNCRIP_O60506_211_GYAFVTFCTK (UniProt O60506)	-0.0111	0.134
TBC1D8B_Q0IIM8_80_ILHQTPDSQVYLSIACGANREEITK (UniProt Q0IIM8)	0.0612	-0.0632
TAP2_Q03519_540_PISQYEHCYLHSQVVSVGQEPVLFSGSVR (UniProt Q03519)	-0.152	0.336
TBC1D13_Q9NVG8_387_LLQDYPITDVCQILQK (UniProt Q9NVG8)	-0.0681	-0.374
TCF20_Q9UGU0_1918_YHYPCAIDADCLLHEENFSVR (UniProt Q9UGU0)	0.317	0.504
TARS_P26639_137_VNNVVWDLDRPLEEDCTLELLK (UniProt P26639)	0.0651	0.0458
TATDN1_Q6P1N9_76_DALHLAQTNGMFFSTVGCHPTR (UniProt Q6P1N9)	0.0651	0.0523
TCEAL3_Q969E4_44_TECEGKREDEGEPGDEGQLEDEGSQEK (UniProt Q969E4)	-0.104	-0.97
TBCK_Q8TEA7_54_LCQYVDISR (UniProt Q8TEA7)	0.114	0.0076
TARSL2_A2RTX5_74_LCLAEER (UniProt A2RTX5)	0.00859	-0.0923
TAF6_P49848_235_EITEACVGSCEAK (UniProt P49848)	-0.193	-1.67
TANC1_Q9C0D5_800_MDALSCFLIK (UniProt Q9C0D5)	-0.167	-1.29

Target	probe-labelled cysteine peptide fold change (10 µM)	probe-labelled cysteine peptide fold change (50 µM)
TCEA1_P23193_212_KNVLCGNIPPDLFAR (UniProt P23193)	0.154	-0.139
TANC1_Q9C0D5_1023_GHGDILQYLLTCEWSPGPPQPGTLR (UniProt Q9C0D5)	0.123	0.518
TAPBPL_Q9BX59_283_DASLTLPGLTIQDEGTYICQITTSLYR (UniProt Q9BX59)	0.289	0.503
TACC3_Q9Y6A5_662_CEELHGK (UniProt Q9Y6A5)	0.104	-0.0309
SZT2_Q5T011_1152_LAACGLEGPPQEETKPK (UniProt Q5T011)	-0.32	-0.367
TBC1D1_Q86TI0_701_SPLEPVCEDGPFGPPPEEK (UniProt Q86TI0)	-0.31	0.0357
TAP2_Q03519_641_VLILDEATSALDVQCEQALQDWNSR (UniProt Q03519)	-0.0445	-0.173
TAOK3_Q9H2K8_795_LDEAQEAECQALR (UniProt Q9H2K8)	0.0475	0.356
TBCD_Q9BTW9_269_REDCLPYAATVLR (UniProt Q9BTW9)	-0.112	0.101
TATDN1_Q6P1N9_113+123_VVAIGECGLDFDRLQFCPK (UniProt Q6P1N9)	-0.0541	-0.251
TACC3_Q9Y6A5_206_VTPASETLEDPCR (UniProt Q9Y6A5)	-0.0918	0.0974
TARBP1_Q13395_592_VNESYFKPSPTCSSIGLHK (UniProt Q13395)	-0.115	-0.851
TBK1_Q9UHD2_605_AMTHFTDECVK (UniProt Q9UHD2)	-0.171	0.226
TBC1D1_Q86TI0_387+390_APAQLCEGCPLQSLHK (UniProt Q86TI0)	0.127	-0.372
TACC3_Q9Y6A5_20_NTENCDFLFSPPEVTGR (UniProt Q9Y6A5)	0.0968	0.244
TAP1_Q03518_722_KPCVLILDDATSALDANSQLQVEQLLYESPER (UniProt Q03518)	0.0289	0.311
TBC1D1_Q86TI0_178_KFEVLFCGR (UniProt Q86TI0)	-0.0608	-0.0516

Reference: the supplement of paper PMC12067093, “Discovery and optimisation of a covalent ligand for TRIM25 and its application to targeted protein ubiquitination” (Chemical Science, 2025)
